doi:10.1101/2024.09.02.610784
No constants are given. Whether binding was seen depends on the method and setting. Some binding calls cover weakened binding; strength is not graded here.

Target: T1, Arabidopsis thaliana TOPLESS (Arabidopsis thaliana) (UniProt Q94AI7)
T1 sequence: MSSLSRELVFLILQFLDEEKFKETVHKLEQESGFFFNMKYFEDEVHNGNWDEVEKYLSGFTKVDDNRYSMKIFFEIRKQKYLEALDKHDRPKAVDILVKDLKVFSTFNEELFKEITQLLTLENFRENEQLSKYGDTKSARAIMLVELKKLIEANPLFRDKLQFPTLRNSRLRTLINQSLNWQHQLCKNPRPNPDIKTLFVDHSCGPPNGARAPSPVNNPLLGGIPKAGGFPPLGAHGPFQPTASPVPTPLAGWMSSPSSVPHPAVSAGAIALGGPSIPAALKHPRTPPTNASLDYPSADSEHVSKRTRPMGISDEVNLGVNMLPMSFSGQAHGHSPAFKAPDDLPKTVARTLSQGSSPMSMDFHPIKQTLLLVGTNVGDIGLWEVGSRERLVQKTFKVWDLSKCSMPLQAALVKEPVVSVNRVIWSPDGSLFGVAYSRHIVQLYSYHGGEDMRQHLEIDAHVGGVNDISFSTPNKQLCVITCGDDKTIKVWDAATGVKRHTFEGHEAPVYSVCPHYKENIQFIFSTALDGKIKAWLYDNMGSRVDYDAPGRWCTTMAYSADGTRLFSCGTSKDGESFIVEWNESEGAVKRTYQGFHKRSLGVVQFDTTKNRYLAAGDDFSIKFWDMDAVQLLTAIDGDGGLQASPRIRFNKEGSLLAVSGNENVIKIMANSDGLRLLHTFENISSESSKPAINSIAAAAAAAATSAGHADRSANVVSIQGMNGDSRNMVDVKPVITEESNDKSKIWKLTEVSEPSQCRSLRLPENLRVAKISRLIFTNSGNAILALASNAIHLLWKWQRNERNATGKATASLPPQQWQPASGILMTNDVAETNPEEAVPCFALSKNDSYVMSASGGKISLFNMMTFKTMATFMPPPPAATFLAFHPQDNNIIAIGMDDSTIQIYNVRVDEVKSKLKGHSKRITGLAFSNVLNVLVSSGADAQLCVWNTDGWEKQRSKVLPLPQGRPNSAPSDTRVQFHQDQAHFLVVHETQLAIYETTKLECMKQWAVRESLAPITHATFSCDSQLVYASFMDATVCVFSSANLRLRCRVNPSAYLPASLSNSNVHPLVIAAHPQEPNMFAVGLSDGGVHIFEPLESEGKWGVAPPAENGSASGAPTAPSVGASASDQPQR
Assay: two-hybrid

binding: binds
B1: Arabidopsis thaliana ARF4 (protein, UniProt Q9ZTX9 1-788)
chain: MEFDLNTEIAEVEEEENDDVGVGVGGGTRIDKGRLGISPSSSSSCSSGSSSSSSSTGSASSIYSELWHACAGPLTCLPKKGNVVVYFPQGHLEQDAMVSYSSPLEIPKFDLNPQIVCRVVNVQLLANKDTDEVYTQVTLLPLQEFSMLNGEGKEVKELGGEEERNGSSSVKRTPHMFCKTLTASDTSTHGGFSVPRRAAEDCFAPLDYKQQRPSQELIAKDLHGVEWKFRHIYRGQPRRHLLTTGWSIFVSQKNLVSGDAVLFLRDEGGELRLGIRRAARPRNGLPDSIIEKNSCSNILSLVANAVSTKSMFHVFYSPRATHAEFVIPYEKYITSIRSPVCIGTRFRMRFEMDDSPERRCAGVVTGVCDLDPYRWPNSKWRCLLVRWDESFVSDHQERVSPWEIDPSVSLPHLSIQSSPRPKRPWAGLLDTTPPGNPITKRGGFLDFEESVRPSKVLQGQENIGSASPSQGFDVMNRRILDFAMQSHANPVLVSSRVKDRFGEFVDATGVNPACSGVMDLDRFPRVLQGQEICSLKSFPQFAGFSPAAAPNPFAYQANKSSYYPLALHGIRSTHVPYQNPYNAGNQSSGPPSRAINFGEETRKFDAQNEGGLPNNVTADLPFKIDMMGKQKGSELNMNASSGCKLFGFSLPVETPASKPQSSSKRICTKVHKQGSQVGRAIDLSRLNGYDDLLMELERLFNMEGLLRDPEKGWRILYTDSENDMMVVGDDPWHDFCNVVWKIHLYTKEEVENANDDNKSCLEQAALMMEASKSSSVSQPDSSPTITRV
